# Reference: PubChem BioAssay AID1347423 (Functional Genomics Laboratory (NCATS/FGL), 2020)
# Among all 52,000 sequences or so, about 210 (0.4%) were called active.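 Rule for the calls: active = gene whose silencing raises cell survival under the drug, median off-target-corrected z-score across its silencing RNAs 2 or more; inactive = the rest.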 Some of the results follow.
# Assay: Resistance to Poly (ADP-Ribose) Polymerase inhibitor: Gene Identification via Genome-wide siRNA Screen
# Conditions: mouse BRCA2 R2336H ES cells, olaparib, CellTiter-Glo viability; stronger effect = higher value
# In short: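 Mouse BRCA2 R2336H ES cells were reverse-transfected with siRNA (20 nM final), treated at 48 h with 500 nM olaparib, and read by CellTiter-Glo after 72 h. Scores: MAD-based z per siRNA, median per gene, seed off-target correction.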
row,Sequence,z-score
1,GGACACAGCAAGGAAGAAATT against Mad2l1bp,inactive: 0.187
2,GGAAGAUUGAAUUUGACUCTT against Rpn2,inactive: -0.115
3,GGAAAGAUGAGAUCCUAGGTT against BC032204,inactive: 2.18
4,GGGAGAUAACAUAAGUCAUTT against A130009K11Rik,inactive: 0.94
5,GCCAAUUUGAAGGUUUUCATT against Tlr8,inactive: -0.83
6,GGUGGACAUUCCUAAGAUUTT against Eif2c1,inactive: 0.739
7,GGAGGUGAAGAUGGCCAUGTT against Olfr285,inactive: -0.996
8,CGUUCACCGUCUCCAAGUATT against Cav3,inactive: -3.21
9,GGCACUAAUUGAAGAAUUUTT against 4930544G11Rik,inactive: 1.06
10,GGUAGUAGGAGGAAUGACGTT against 4633402D15Rik,inactive: -1.72
11,GGGUAUUAUAAAAACCCAGTT against Ccrn4l,inactive: 2.01
12,GGAGACAAACAAAAUCAUCTT against Sbsn,inactive: 1.28
13,GGAAUGAGUUAGAAUAGCGTT against BC004004,inactive: 1.24
14,CCCAAAUACUCCAAUUAUATT against Fzd3,inactive: 0.889
15,GCUCACCCAACAAUAUCCATT against Slc17a8,inactive: 0.0101
16,GGACCUCGAUCUCUCUUAUTT against Lrfn3,inactive: -0.788
17,GGUCAGCUUCAGAGAAAACTT against Aire,inactive: 0.0039
18,GGCUCUGUUUAUCCUGGAGTT against Pcdha7,inactive: 0.702
19,GGUCAUGGAAGAUUCCAAGTT against Atp6v1c2,inactive: -0.23
20,CCAGGAUUACAUCCGGACATT against D530025C17Rik,inactive: 0.0395
21,GGGCCAAAACAAUUAAGAATT against Kif5b,inactive: 0.0478
22,GGUACAAUCGAAAGUACUUTT against 2210013K02Rik,inactive: -0.00963

row,Sequence,z-score
1,GGUUUAUAGCUUUUUGGUCTT against Tiam1,inactive: 1.24
2,GUGCAGAAGCUGAUGCACCTT against Pou3f1,inactive: 0.539
3,GGAUCAGAAGUUGAUAGAUTT against 4930429O20Rik,inactive: -1.53
4,GGCUUAAAGAAGAAAAAGATT against 2600001J17Rik,inactive: -2.02
5,GGUAAUGCUGUGGAGUCUUTT against Wdr53,inactive: -0.882
6,CCACGCUAACUGGAAAGAATT against Dusp19,inactive: -0.0447
7,GGAACUCAAAUUGAAAAGGTT against Manea,inactive: 0.449
8,GGAGAAGGCAAAGAAAGGATT against Foxa3,inactive: 1.38
9,GGAUGAGCUUUAAAAUAGATT against Mc1r,inactive: 0.807
10,GGACCAUGUGGACUUUAGCTT against Sema7a,inactive: -1.18
11,CCGUCAUCUGCUCUGAUUUTT against Cd5,inactive: -0.0161
12,CCUUCAAGAUAAAUUGACATT against AW413431,inactive: -1
13,GGAUAACCCUCAGAAGUCCTT against Was,inactive: 0.0235
14,GCAAGUGGAGUUUAUUGAUTT against D2Bwg0891e,inactive: 0.193
15,GCACAUCGAAAAUGCCCUGTT against Cpt1c,inactive: -1.04
16,CGAACUGGGCAGUAUAAACTT against Fgf2,inactive: 0.084
17,GCGGGACUACACUCUUAAGTT against Car15,inactive: -1.69
18,GGCAGUGGACCACAUCAACTT against Eno2,inactive: 0.353
19,GGAUGUCAGGCUUUGUACATT against Alg6,inactive: 0.36
20,GGUCGUGUAUGUCACUGCATT against Gabt4,inactive: -0.176
21,GGACUUGAAAUUAGCAAAATT against Arhgef3,inactive: 0.95
22,CGAGUUUAAAGACCUGGAGTT against Gjb6,inactive: 0.141

row,Sequence,z-score
1,CCCUUGACACUUAAUAAAGTT against Zfpm1,inactive: 1.29
2,GGGUUGAUCCCUUUGAUUCTT against AI132321,inactive: 0.882
3,GGUCCUCAUGGGCAACAUUTT against Olfr624,inactive: -0.904
4,GGGACAUUGCUCAAGAUUATT against C730048E16Rik,inactive: 1.48
5,CCAUGAAGUAUGGAACAACTT against Mccc1,inactive: 0.255
6,GCCAUUGGGUGUAACAUUUTT against Mpp6,inactive: 0.218
7,GGUAGAGCUAAGUAAAGAGTT against 2310058A11Rik,inactive: -1.2
8,GGGAAAAUAACGGUGAAUATT against Hspb8,inactive: 0.222
9,CCUGUAAGAACCUUGCCUATT against Sytl3,inactive: 0.413
10,GGAGCUAGUAUGUUCAACATT against Ubqln1,inactive: -1.05
11,GGCGGCCUAUAUGAGGUUCTT against Cftr,inactive: -0.126
12,GGAGGCAUGAUAAGCUUCGTT against Pmm1,inactive: -0.45
13,GCGGCUACGUUUAUGAAGATT against Hlcs,inactive: -0.316
14,GCUCAACCUGAAAACGUAUTT against Ptcd1,inactive: 0.823
15,GCGGAGAAUAUCUUGCUUATT against 2310007B03Rik,inactive: 1.36
16,GCAAAGAAGUGUAUGUGUUTT against Olfr273,inactive: 0.291
17,GUCUGUGACCAGUUCCAUUTT against A930011G24,inactive: 0.741
18,GCACAGAAGUUAUUUAGCUTT against 5832424M12,inactive: 0.364
19,GCUUUGAAGUUCCUCAUGCTT against BC052328,inactive: -1.35
20,GGGAGAAAUUUGAUAGUUUTT against 5330414D10Rik,inactive: -0.947
21,GGAAAUAUAGUAAAGCAGATT against BC006933,inactive: -0.0719
22,GGAAUCUAGACCUAACUUCTT against 6230401O10Rik,inactive: 1.03

# Part of the list above, bar-delimited.
row | Sequence | z-score
4 | GGGACAUUGCUCAAGAUUATT against C730048E16Rik | inactive: 1.48
5 | CCAUGAAGUAUGGAACAACTT against Mccc1 | inactive: 0.255
6 | GCCAUUGGGUGUAACAUUUTT against Mpp6 | inactive: 0.218
7 | GGUAGAGCUAAGUAAAGAGTT against 2310058A11Rik | inactive: -1.2
